Taken from: PubChem BioAssay AID1259405 (NCATS, 2018)
Assay: 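Mouse-designed siRNAs used to find CHO productivity engineering targets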 (primary screen). System: Chinese hamster CHO-K1 ovary cells with stable secreted eGFP expression. Knock-down reagent: single siRNA against mouse genes, 0.8 pmol siRNA per well (2 µl of 400 nM stock). Timing: 3 days. Read-out: 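Per-well intracellular GFP measured by laser scanning cytometry, plus viability from ATP luminescence, each relative to plate median of non-targeting control wells, in %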. Reading the numbers: GFP, % of control: higher = more GFP per well, higher productivity; viability (ATP), % of control: higher = more viable cells (more ATP). Active means: 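Called active when intracellular GFP, relative to negative control, is at or above 120%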.
The whole screen tested about 50,000 reagents; shown is a random part of them. Over the whole deposit, about 4,000 (8%) were called active. 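Mouse siRNA library applied to hamster cells; one well for each siRNA.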 A number with no mark means an inactive call. The numbers tell different reagents against one gene apart.

For Ddx41 #1 the deposit lists GFP, % of control 92.4; viability (ATP), % of control 77.4. Depletion of Ddx41 #2 gave: GFP, % of control 72; viability (ATP), % of control 70.9. For Ddx41 #3, the values are GFP, % of control 145 (active); viability (ATP), % of control 149. Silencing of Adam9 #1 came out at: GFP, % of control 102; viability (ATP), % of control 103. Depletion of Adam9 #2 came out at: GFP, % of control 56.9; viability (ATP), % of control 75.5. Depletion of Adam9 #3 came out at: GFP, % of control 78.2; viability (ATP), % of control 84.3.

After knock-down of Reg1 #1 the results were GFP, % of control 94.1; viability (ATP), % of control 84.3. Reg1 #2 showed GFP, % of control 82; viability (ATP), % of control 83.7. After knock-down of Reg1 #3, the record shows GFP, % of control 56.4; viability (ATP), % of control 96.8. Foxb2 #1 scored GFP, % of control 60.1; viability (ATP), % of control 63.9. Foxb2 #2 gave GFP, % of control 109; viability (ATP), % of control 72.8. After knock-down of Foxb2 #3, the record shows GFP, % of control 67.8; viability (ATP), % of control 74.2.

For Chgb #1, the entry reads GFP, % of control 47.8; viability (ATP), % of control 46.5. Chgb #2 gave GFP, % of control 39.1; viability (ATP), % of control 28.5. After knock-down of Chgb #3, the screen gave GFP, % of control 89.8; viability (ATP), % of control 72.2. Knock-down of Prss23 #1 resulted in: GFP, % of control 91.3; viability (ATP), % of control 70.5. Against Prss23 #2, the values are GFP, % of control 71.1; viability (ATP), % of control 72. Prss23 #3 gave GFP, % of control 31.7; viability (ATP), % of control 25.5.

Against Pag1 #1, the entry reads GFP, % of control 92.6; viability (ATP), % of control 88. For Pag1 #2 the deposit lists GFP, % of control 79.8; viability (ATP), % of control 83.3. Silencing of Pag1 #3 came out at: GFP, % of control 110; viability (ATP), % of control 80.9. Serbp1 #1 showed GFP, % of control 166 (active); viability (ATP), % of control 77. Silencing of Serbp1 #2 came out at: GFP, % of control 148 (active); viability (ATP), % of control 80.7. Knock-down of Serbp1 #3 gave: GFP, % of control 77.1; viability (ATP), % of control 32.2.

Against Sf3a1 #1, the entry reads GFP, % of control 60; viability (ATP), % of control 49.7. Depletion of Sf3a1 #2 came out at: GFP, % of control 73.4; viability (ATP), % of control 65.2. Against Sf3a1 #3 the deposit lists GFP, % of control 108; viability (ATP), % of control 72.9. Knock-down of Or4l15 #1 gave: GFP, % of control 74; viability (ATP), % of control 88.9. Silencing of Or4l15 #2 resulted in: GFP, % of control 78; viability (ATP), % of control 82. Against Or4l15 #3, the values are GFP, % of control 81.7; viability (ATP), % of control 82.

After knock-down of Upk3b #1 the results were GFP, % of control 38.5; viability (ATP), % of control 41.8. Silencing of Upk3b #2 gave: GFP, % of control 83; viability (ATP), % of control 86.3. Upk3b #3 scored GFP, % of control 54.8; viability (ATP), % of control 78.4. Silencing of Mfsd11 #1 gave: GFP, % of control 86.9; viability (ATP), % of control 81. Mfsd11 #2 scored GFP, % of control 58.2; viability (ATP), % of control 74. Mfsd11 #3 gave GFP, % of control 65; viability (ATP), % of control 64.

Silencing of Ftl1 #1 resulted in: GFP, % of control 73.9; viability (ATP), % of control 78.4. For Ftl1 #2 the deposit lists GFP, % of control 58.7; viability (ATP), % of control 36.9. With knock-down of Ftl1 #3, the record shows GFP, % of control 174 (active); viability (ATP), % of control 29.9. Krr1 #1 gave GFP, % of control 82.1; viability (ATP), % of control 83.1. After knock-down of Krr1 #2 the results were GFP, % of control 190 (active); viability (ATP), % of control 81.8. Krr1 #3 gave GFP, % of control 47.6; viability (ATP), % of control 62.6.

Depletion of Ubap2l #1 resulted in: GFP, % of control 69; viability (ATP), % of control 64.7. Depletion of Ubap2l #2 resulted in: GFP, % of control 114; viability (ATP), % of control 98.9. After knock-down of Ubap2l #3, the screen gave GFP, % of control 113; viability (ATP), % of control 87.2. Against C230012O17Rik #1, the entry reads GFP, % of control 80.7; viability (ATP), % of control 42.2. Silencing of C230012O17Rik #2 gave: GFP, % of control 113; viability (ATP), % of control 105. C230012O17Rik #3 gave GFP, % of control 124 (active); viability (ATP), % of control 130.

After knock-down of Afg2b #1, the record shows GFP, % of control 74.7; viability (ATP), % of control 95.2. Afg2b #2 gave GFP, % of control 98.8; viability (ATP), % of control 70.6. With knock-down of Mapk15, the screen gave GFP, % of control 120 (active); viability (ATP), % of control 47.2. Against 4933404G15Rik #1 the deposit lists GFP, % of control 48; viability (ATP), % of control 27.1. Knock-down of 4933404G15Rik #2 gave: GFP, % of control 57.5; viability (ATP), % of control 89.4. Silencing of 4933404G15Rik #3 gave: GFP, % of control 146 (active); viability (ATP), % of control 178.

Reagents above marked active:
Ddx41 #3 → GFP, % of control = 145 (active); viability (ATP), % of control = 149
Serbp1 #1 → GFP, % of control = 166 (active); viability (ATP), % of control = 77
Serbp1 #2 → GFP, % of control = 148 (active); viability (ATP), % of control = 80.7
Ftl1 #3 → GFP, % of control = 174 (active); viability (ATP), % of control = 29.9
Krr1 #2 → GFP, % of control = 190 (active); viability (ATP), % of control = 81.8
C230012O17Rik #3 → GFP, % of control = 124 (active); viability (ATP), % of control = 130
Mapk15 → GFP, % of control = 120 (active); viability (ATP), % of control = 47.2
4933404G15Rik #3 → GFP, % of control = 146 (active); viability (ATP), % of control = 178
